Substitutions are numbered along the chain they refer to. Names may count otherwise. Results are given in words; binding and its absence hold for the method and conditions named. Some results given as binding are weak or reduced against the parent protein; the word gives no strength. Where a sequence is shown, tags or fusion partners need not be part of it.

The chains behind the UniProt entries cited, without tags or fusion partners. Residues count along the entry.
UniProt Q15788, residues 570-780: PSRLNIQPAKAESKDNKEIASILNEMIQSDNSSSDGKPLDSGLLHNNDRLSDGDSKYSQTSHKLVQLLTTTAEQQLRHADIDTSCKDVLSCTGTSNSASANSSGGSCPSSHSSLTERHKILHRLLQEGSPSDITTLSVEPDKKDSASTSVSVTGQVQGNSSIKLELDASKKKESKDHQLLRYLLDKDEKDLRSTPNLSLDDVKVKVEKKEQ

B1: LXRα-VP16 (wild-type liver X receptor-α fused to VP16) (receptor, UniProt Q13133-1 1-447)
chain: MSLWLGAPVPDIPPDSAVELWKPGAQDASSQAQGGSSCILREEARMPHSAGGTAGVGLEAAEPTALLTRAEPPSEPTEIRPQKRKKGPAPKMLGNELCSVCGDKASGFHYNVLSCEGCKGFFRRSVIKGAHYICHSGGHCPMDTYMRRKCQECRLRKCRQAGMREECVLSEEQIRLKKLKRQEEEQAHATSLPPRASSPPQILPQLSPEQLGMIEKLVAAQQQCNRRSFSDRLRVTPWPMAPDPHSREARQQRFAHFTELAIVSVQEIVDFAKQLPGFLQLSREDQIALLKTSAIEVMLLETSRRYNPGSESITFLKDFSYNREDFAKAGLQVEFINPIFEFSRAMNELQLNDAEFALLIAISIFSADRPNVQDQLQVERLQHTYVEALHAYVSIHHPHDRLMFPRMLMKLVSLRTLSSVHSEQVFALRLQDKKLPPLLSEIWDVHE
B2: LXRα-VP16 p.M346V (receptor, UniProt Q13133-1 1-447)
chain: B1 chain with M346V
B3: LXRα-VP16 p.L217P (receptor, UniProt Q13133-1 1-447)
chain: B1 chain with L217P

The target in the test is Gal4-SRC1 (aa 570-780) (UniProt Q15788). The test can be described thus: two-hybrid; mammalian two-hybrid in HEK293 cells: LXRα-VP16 with Gal4-SRC1 (aa 570-780) or Gal4-NCoR (ID 1 + 2) and a UAS-TK-Luc reporter; increasing doses of T0901317 for 20 h; firefly/Renilla luciferase as % of WT.
Regarding B1, the binding entry is “binds”.
The same measure for B2: “binds”.
The same measure for B3: “binds”.

These data come from article PMC11496107.
